No constants are given. Whether binding was seen depends on the method and setting. Binding can be weak; no strength is given. Where a sequence is shown, tags or fusion partners need not be part of it.

Protein sequences, listed by entry. Tags and fused reporters are not part of them. Lines headed by an entry give the natural chain unless they say otherwise; changes in a name come on top.
UniProt P21951: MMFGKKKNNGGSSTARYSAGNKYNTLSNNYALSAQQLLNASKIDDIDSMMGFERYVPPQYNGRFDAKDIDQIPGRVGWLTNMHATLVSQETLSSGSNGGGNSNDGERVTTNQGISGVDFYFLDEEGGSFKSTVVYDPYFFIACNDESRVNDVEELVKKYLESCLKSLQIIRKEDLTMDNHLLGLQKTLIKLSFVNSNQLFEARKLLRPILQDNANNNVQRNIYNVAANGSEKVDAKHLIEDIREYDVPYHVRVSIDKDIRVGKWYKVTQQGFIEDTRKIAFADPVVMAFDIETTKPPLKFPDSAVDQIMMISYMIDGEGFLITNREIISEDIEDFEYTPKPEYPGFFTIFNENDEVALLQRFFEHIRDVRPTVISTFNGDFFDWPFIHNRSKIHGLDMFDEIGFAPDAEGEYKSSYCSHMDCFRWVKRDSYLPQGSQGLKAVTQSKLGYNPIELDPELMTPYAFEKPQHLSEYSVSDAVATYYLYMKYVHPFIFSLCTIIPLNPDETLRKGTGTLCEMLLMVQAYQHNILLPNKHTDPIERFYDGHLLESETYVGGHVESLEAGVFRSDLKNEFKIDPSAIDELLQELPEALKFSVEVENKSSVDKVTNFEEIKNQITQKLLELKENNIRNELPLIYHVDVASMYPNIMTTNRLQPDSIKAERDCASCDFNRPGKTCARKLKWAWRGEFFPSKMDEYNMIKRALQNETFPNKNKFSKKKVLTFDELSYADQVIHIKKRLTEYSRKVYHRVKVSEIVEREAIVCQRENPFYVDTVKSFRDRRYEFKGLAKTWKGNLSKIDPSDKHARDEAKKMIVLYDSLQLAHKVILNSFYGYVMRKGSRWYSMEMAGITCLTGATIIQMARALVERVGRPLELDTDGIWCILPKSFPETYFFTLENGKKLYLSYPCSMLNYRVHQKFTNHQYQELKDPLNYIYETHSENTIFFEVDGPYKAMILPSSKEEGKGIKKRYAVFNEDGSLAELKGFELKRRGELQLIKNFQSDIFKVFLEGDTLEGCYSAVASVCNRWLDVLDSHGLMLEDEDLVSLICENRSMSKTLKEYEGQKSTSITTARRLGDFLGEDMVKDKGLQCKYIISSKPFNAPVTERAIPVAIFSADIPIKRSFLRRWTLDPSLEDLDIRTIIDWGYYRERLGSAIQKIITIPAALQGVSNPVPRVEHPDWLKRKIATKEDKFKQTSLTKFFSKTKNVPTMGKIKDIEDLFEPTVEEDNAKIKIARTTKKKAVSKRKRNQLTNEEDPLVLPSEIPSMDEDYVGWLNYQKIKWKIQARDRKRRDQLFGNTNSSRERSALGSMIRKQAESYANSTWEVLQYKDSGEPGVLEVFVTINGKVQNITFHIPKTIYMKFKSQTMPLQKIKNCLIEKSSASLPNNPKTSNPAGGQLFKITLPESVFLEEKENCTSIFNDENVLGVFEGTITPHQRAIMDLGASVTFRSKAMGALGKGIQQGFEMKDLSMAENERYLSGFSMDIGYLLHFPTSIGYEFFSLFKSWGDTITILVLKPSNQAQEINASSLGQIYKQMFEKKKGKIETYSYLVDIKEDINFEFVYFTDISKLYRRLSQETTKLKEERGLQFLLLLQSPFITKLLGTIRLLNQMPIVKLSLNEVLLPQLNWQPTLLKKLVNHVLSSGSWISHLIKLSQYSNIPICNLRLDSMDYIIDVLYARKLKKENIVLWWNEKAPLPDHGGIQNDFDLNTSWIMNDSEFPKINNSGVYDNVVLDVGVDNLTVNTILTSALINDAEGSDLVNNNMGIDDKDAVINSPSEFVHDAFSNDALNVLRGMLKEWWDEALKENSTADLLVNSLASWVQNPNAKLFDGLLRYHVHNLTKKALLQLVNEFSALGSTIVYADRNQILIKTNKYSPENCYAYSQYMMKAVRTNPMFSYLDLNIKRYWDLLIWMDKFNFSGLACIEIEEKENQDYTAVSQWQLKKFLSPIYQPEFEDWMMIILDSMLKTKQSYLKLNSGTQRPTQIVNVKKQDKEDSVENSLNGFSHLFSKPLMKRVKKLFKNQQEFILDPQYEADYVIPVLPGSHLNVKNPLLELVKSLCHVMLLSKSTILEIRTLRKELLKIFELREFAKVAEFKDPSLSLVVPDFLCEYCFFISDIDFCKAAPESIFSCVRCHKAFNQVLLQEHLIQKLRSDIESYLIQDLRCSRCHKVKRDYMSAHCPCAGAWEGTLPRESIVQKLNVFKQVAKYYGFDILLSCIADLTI

The target of this test is Pol2 of Pol epsilon exo- (full length, exonuclease-inactivating mutations) (yeast (strains based on W303)) (UniProt P21951). The test can be described thus: cryo-EM structure; 250 nM CMG bound to a desthiobiotin-labelled pre-formed DNA fork on streptavidin beads with 2 mM ATPgammaS, then 80 nM Pol epsilon exo-, 30 °C, eluted with biotin; no crosslinker; 4.9 Å; both purified.

B1: Dpb2, subunit of the CBP-tagged Pol epsilon complexes (deltacat and exo-) (protein, UniProt P24482 1-689)
chain: MFGSGNVLPVKIQPPLLRPLAYRVLSRKYGLSIKSDGLSALAEFVGTNIGANWRQGPATIKFLEQFAAVWKQQERGLFIDQSGVKEVIQEMKEREKVEWSHEHPIQHEENILGRTDDDENNSDDEMPIAADSSLQNVSLSSPMRQPTERDEYKQPFKPESSKALDWRDYFKVINASQQQRFSYNPHKMQFIFVPNKKQNGLGGIAGFLPDIEDKVQMFLTRYYLTNDRVMRNENFQNSDMFNPLSSMVSLQNELSNTNRQQQSSSMSITPIKNLLGRDAQNFLLLGLLNKNFKGNWSLEDPSGSVEIDISQTIPTQGHYYVPGCMVLVEGIYYSVGNKFHVTSMTLPPGERREITLETIGNLDLLGIHGISNNNFIARLDKDLKIRLHLLEKELTDHKFVILGANLFLDDLKIMTALSKILQKLNDDPPTLLIWQGSFTSVPVFASMSSRNISSSTQFKNNFDALATLLSRFDNLTENTTMIFIPGPNDLWGSMVSLGASGTLPQDPIPSAFTKKINKVCKNVVWSSNPTRIAYLSQEIVIFRDDLSGRFKRHRLEFPFNESEDVYTENDNMMSKDTDIVPIDELVKEPDQLPQKVQETRKLVKTILDQGHLSPFLDSLRPISWDLDHTLTLCPIPSTMVLCDTTSAQFDLTYNGCKVINPGSFIHNRRARYMEYVPSSKKTIQEEIYI
Turning to B1, the binding entry is “binds”.

The values above are taken from publication PMC6265327.
